{"sequences": {"note": "Chains of the proteins cited; added tags and fusions are not shown.", "UniProt Q15910": "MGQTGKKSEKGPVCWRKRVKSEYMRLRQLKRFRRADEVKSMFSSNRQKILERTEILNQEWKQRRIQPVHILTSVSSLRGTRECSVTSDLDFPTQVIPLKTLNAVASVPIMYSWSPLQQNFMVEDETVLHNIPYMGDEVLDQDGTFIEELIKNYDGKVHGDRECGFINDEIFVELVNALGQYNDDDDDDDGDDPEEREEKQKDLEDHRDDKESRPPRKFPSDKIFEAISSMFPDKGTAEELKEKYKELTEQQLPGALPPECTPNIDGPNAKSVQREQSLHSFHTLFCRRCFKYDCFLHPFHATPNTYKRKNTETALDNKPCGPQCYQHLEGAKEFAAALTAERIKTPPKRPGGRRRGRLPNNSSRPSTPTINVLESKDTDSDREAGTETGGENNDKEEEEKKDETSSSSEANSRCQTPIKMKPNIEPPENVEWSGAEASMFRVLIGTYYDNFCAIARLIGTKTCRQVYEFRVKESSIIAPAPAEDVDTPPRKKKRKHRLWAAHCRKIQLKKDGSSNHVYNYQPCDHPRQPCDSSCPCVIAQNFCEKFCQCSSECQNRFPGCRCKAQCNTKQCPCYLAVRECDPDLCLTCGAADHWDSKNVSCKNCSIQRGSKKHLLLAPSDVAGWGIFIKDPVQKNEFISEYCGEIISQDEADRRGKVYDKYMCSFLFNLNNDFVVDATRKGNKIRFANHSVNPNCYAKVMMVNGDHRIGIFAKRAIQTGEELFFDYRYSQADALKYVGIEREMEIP", "UniProt Q9HAU4": "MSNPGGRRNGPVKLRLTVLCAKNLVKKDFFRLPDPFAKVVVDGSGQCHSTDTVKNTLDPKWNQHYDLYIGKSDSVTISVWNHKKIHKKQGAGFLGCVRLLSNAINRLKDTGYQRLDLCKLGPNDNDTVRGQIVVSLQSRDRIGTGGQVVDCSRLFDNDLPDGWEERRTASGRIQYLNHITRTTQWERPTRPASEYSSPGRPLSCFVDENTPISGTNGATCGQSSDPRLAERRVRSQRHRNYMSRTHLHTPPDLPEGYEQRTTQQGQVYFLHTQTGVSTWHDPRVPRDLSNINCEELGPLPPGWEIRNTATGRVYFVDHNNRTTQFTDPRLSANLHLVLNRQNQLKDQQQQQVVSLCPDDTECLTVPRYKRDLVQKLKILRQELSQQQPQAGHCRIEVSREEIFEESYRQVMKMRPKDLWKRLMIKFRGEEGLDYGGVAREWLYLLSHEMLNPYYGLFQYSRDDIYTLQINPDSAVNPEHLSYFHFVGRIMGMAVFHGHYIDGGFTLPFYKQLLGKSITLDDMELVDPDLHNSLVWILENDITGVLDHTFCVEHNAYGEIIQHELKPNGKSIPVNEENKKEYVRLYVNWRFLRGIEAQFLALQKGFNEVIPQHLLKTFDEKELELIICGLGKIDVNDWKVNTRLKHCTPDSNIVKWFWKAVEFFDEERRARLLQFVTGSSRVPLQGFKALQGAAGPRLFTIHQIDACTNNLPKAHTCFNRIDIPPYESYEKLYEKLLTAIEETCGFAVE"}, "source": "paper PMC12561351", "key": {"[1]": {"biological_target": "EZH2 (in 293T cells, co-IP of Figure 5E) (UniProt Q15910)", "experiment": "co-IP; SMURF2 and EZH2 in 293T cells (endogenous or overexpressed not stated); IP buffer 150 mM NaCl, 50 mM Tris-HCl pH 8.0, 1% Nonidet P-40; Protein A/G magnetic beads; Western blot"}, "[2]": {"biological_target": "Enhancer of zeste homolog 2 (EZH2) (human (endogenous in HN6 and CAL27)) (UniProt Q15910)", "experiment": "co-IP; endogenous proteins in HN6 and CAL27 lysates; IP buffer 150 mM NaCl, 50 mM Tris-HCl pH 8.0, 1% Nonidet P-40; antibodies and Protein A/G magnetic beads at 4 °C overnight; Western blot"}, "[3]": {"biological_target": "EZH2 (overexpressed in HEK293T cells) (UniProt Q15910)", "experiment": "co-IP; p62 and EZH2 overexpressed alone or together in HEK293T cells; IP buffer 150 mM NaCl, 50 mM Tris-HCl pH 8.0, 1% Nonidet P-40; antibodies and Protein A/G magnetic beads at 4 °C overnight; Western blot"}}, "note": "No constants are given. Whether binding was seen depends on the method and setting. In cells and extracts the contact can be indirect. Some entries that bind do so weakly or less than the wild type."}
{"substance": "SMURF2 (in 293T cells, co-IP of Figure 5E) (from UniProt Q9HAU4 1-748) (enzyme)", "values": [{"measurement": "binding", "setting": "[1]", "value": "binds"}]}
{"substance": "p62 (from UniProt Q13501 1-440)", "values": [{"measurement": "binding", "setting": "[2]", "value": "binds"}]}
{"substance": "p62 (overexpressed in HEK293T cells) (from UniProt Q13501 1-440)", "values": [{"measurement": "binding", "setting": "[3]", "value": "binds"}]}
